{"source": "the supplement of paper PMC4604168 (melanoma cell lines)", "note": "The list shows a part of the results. Many values rest on one well or one pass, so single values are uncertain.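 Cells were imaged in 1,536-well plates, and nuclei stained with an antibody against cleaved PARP were counted against all DNA-stained nuclei to give the apoptosis fraction. Screening doses were chosen to leave most cells alive, and resting and induced cleaved-PARP levels differ strongly between cell lines.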", "data": [{"system": "CBRC016 (line from a melanoma biopsy)", "experiment": "cleaved PARP positive nuclei fraction relative to DMSO control; melanoma cells; higher = more apoptosis", "conditions": "library dose: low library concentration; 72 h", "units": {"cleaved PARP positive nuclei fraction": "%"}, "values": [{"smiles": "NC1(c2ccc(-c3nc4ccn5c(=O)[nH]nc5c4cc3-c3ccccc3)cc2)CCC1", "note": "+ CCCS(=O)(=O)Nc1ccc(F)c(C(=O)c2c[nH]c3ncc(Cl)cc23)c1F [PLX4720] (first compound 0.4 µM, partner dose 0.08 µM)", "cleaved PARP positive nuclei fraction": 81.6}, {"smiles": "NC(=O)c1ccc(N(C(N)=O)c2c(F)cccc2F)nc1-c1ccc(F)cc1F", "note": "+ C#Cc1cccc(Nc2ncnc3cc(OCCOC)c(OCCOC)cc23)c1 [erlotinib] (first compound 0.4 µM, partner dose 0.8 µM)", "cleaved PARP positive nuclei fraction": 83}, {"smiles": "C[C@@H](N)c1ccc(C(=O)Nc2ccnc3[nH]ccc23)cc1", "note": "+ Cn1sc(=O)n(Cc2ccccc2)c1=O [TDZD-8] (first compound 0.4 µM, partner dose 0.4 µM)", "cleaved PARP positive nuclei fraction": 30.2}, {"smiles": "CS(=O)(=O)c1ccc(C(=O)Nc2ccc(Cl)c(-c3ccccn3)c2)c(Cl)c1", "note": "[vismodegib] + CCCCCCCCc1ccc(CCC(N)(CO)CO)cc1 [fingolimod] (first compound 1 µM, partner dose 2 µM)", "cleaved PARP positive nuclei fraction": 120}, {"smiles": "Cn1cnc2c(F)c(Nc3ccc(Br)cc3Cl)c(C(=O)NOCCO)cc21", "note": "[selumetinib] + C#Cc1cccc(Nc2ncnc3cc(OCCOC)c(OCCOC)cc23)c1 [erlotinib] (first compound 0.015 µM, partner dose 0.8 µM)", "cleaved PARP positive nuclei fraction": 82.7}, {"smiles": "CC1(C)CCC(c2ccc(Cl)cc2)=C(CN2CCN(c3ccc(C(=O)NS(=O)(=O)c4ccc(N[C@H](CCN5CCOCC5)CSc5ccccc5)c(S(=O)(=O)C(F)(F)F)c4)cc3)CC2)C1", "note": "+ CS(=O)(=O)CCNCc1ccc(-c2ccc3ncnc(Nc4ccc(OCc5cccc(F)c5)c(Cl)c4)c3c2)o1 [lapatinib] (first compound 0.4 µM, partner dose 0.8 µM)", "cleaved PARP positive nuclei fraction": 637}, {"smiles": "CC1(C)CCC(c2ccc(Cl)cc2)=C(CN2CCN(c3ccc(C(=O)NS(=O)(=O)c4ccc(N[C@H](CCN5CCOCC5)CSc5ccccc5)c(S(=O)(=O)C(F)(F)F)c4)cc3)CC2)C1", "note": "+ O=C(O)[C@@H]1[O][Sb](=[O])([O][Sb]2(=[O])[O][C@H]([C@H](O)CO)[C@H](O)[C@H](C(=O)O)[O]2)[O][C@H]([C@H](O)CO)[C@@H]1O [stibogluconate] (first compound 0.4 µM, partner dose 2 µM)", "cleaved PARP positive nuclei fraction": 1610}, {"smiles": "CC1(C)CCC(c2ccc(Cl)cc2)=C(CN2CCN(c3ccc(C(=O)NS(=O)(=O)c4ccc(N[C@H](CCN5CCOCC5)CSc5ccccc5)c(S(=O)(=O)C(F)(F)F)c4)cc3)CC2)C1", "note": "+ Nc1ccn([C@@H]2O[C@H](CO)[C@@H](O)C2(F)F)c(=O)n1 [gemcitabine] (first compound 0.4 µM, partner dose 0.0004 µM)", "cleaved PARP positive nuclei fraction": 1030}, {"smiles": "C[C@]1(O)C[C@@H](c2nc(-c3ccc4ccc(-c5ccccc5)nc4c3)c3c(N)nccn32)C1", "note": "+ CC(=O)O[C@@]12CO[C@@H]1C[C@H](O)[C@@]1(C)C(=O)[C@H](O)C3=C(C)[C@@H](OC(=O)[C@H](O)[C@@H](NC(=O)OC(C)(C)C)c4ccccc4)C[C@@](O)([C@@H](OC(=O)c4ccccc4)[C@H]21)C3(C)C [Docetaxel] (first compound 0.4 µM, partner dose 0.0001 µM)", "cleaved PARP positive nuclei fraction": 169}, {"smiles": "CC1(C)CCC(c2ccc(Cl)cc2)=C(CN2CCN(c3ccc(C(=O)NS(=O)(=O)c4ccc(N[C@H](CCN5CCOCC5)CSc5ccccc5)c(S(=O)(=O)C(F)(F)F)c4)cc3)CC2)C1", "note": "+ Cn1sc(=O)n(Cc2ccccc2)c1=O [TDZD-8] (first compound 0.4 µM, partner dose 0.4 µM)", "cleaved PARP positive nuclei fraction": 1040}, {"smiles": "C[C@]1(O)C[C@@H](c2nc(-c3ccc4ccc(-c5ccccc5)nc4c3)c3c(N)nccn32)C1", "note": "+ OCc1c[nH]c2ccccc12 [Indole-3-carbinol] (first compound 0.4 µM, partner dose 0.8 µM)", "cleaved PARP positive nuclei fraction": 44.1}, {"smiles": "CN(c1ncccc1CNc1nc(Nc2ccc3c(c2)CC(=O)N3)ncc1C(F)(F)F)S(C)(=O)=O", "note": "+ C[C@]1(c2nc3c(C(N)=O)cccc3[nH]2)CCCN1 [Veliparib] (first compound 0.08 µM, partner dose 1.4 µM)", "cleaved PARP positive nuclei fraction": 129}, {"smiles": "C[C@]1(O)C[C@@H](c2nc(-c3ccc4ccc(-c5ccccc5)nc4c3)c3c(N)nccn32)C1", "note": "+ CCCS(=O)(=O)Nc1ccc(F)c(C(=O)c2c[nH]c3ncc(Cl)cc23)c1F [PLX4720] (first compound 0.4 µM, partner dose 0.08 µM)", "cleaved PARP positive nuclei fraction": 82.6}]}]}
